From US4492651A, “Cyclic hexapeptides” (American Home Products Corporation, priority 1983, dated 1985)
Not every detail of the peptide structures is certain; ends, links or a residue may be inferred. Numbered stars: 1 amine (or outer) side, 2 acyl side, 3 side chain; on linkers, the order of the positions; unused ones are H or OH. Square brackets hold non-standard residues; d marks the D form. Peptide text beside a SMILES is read from it. X1 = O=C(C1CNCCN1[*:1])[*:2]

System: growth hormone release
Assay: suppression of growth hormone release in arginine stimulated rats (plasma GH by radioimmunoassay)
Type: in vivo
Details: for Plasma GH Levels: Nembutal-anaesthetised albino male rats, arginine stimulated, blood 15 min after peptide
Description: The potent inhibition of growth hormone secretion was established for the compounds of this invention by subjecting the representative product of Example 5 to the following standard procedure involving suppression of growth hormone release in arginine stimulated rats:
Albino male rats are administered Nembutal intraperitoneally at a dose of 50 milligrams per kilogram. Fifteen minutes later a subcutaneous injection of the product of Example 5 is administered. Ten minutes later 0.5 milliliters of arginine (300 milligrams per milliliter, pH 7.2) is injected into the heart. Five minutes after receipt of the arginine the rats are decapitated and blood is collected into Trasylol-EDTA. An appropriate aliquot is assayed for growth hormone (GH) by radioimmuno-assay. The results of the test procedure were compared with those obtained in the same manner with Compound 8 of Table 2 disclosed by Veber et al., loc. cit., as follows: […]

C[C@@H](O)[C@@H]1NC(=O)[C@H](CCCCN)NC(=O)[C@@H](Cc2c[nH]c3ccccc23)NC(=O)[C@H](Cc2ccccc2)NC(=O)C2CNCCN2C(=O)[C@H](Cc2ccccc2)NC1=O (mixture of isomers) [Example 5, Cyclo-(D-Tryptophyl-L-lysyl-L-threonyl-L-phenylalanyl-DL-2-piperazinocarboxyl-L-phenylalanyl)] (cyclo(F[dW]KTF[X1]))
potency in suppression of GH relative to the product of the Veber et al. reference (Compound 8) (comparison of doses giving about the same GH suppression (0.1 vs 1.0 μg/kg; 1.0 vs 10.0 μg/kg)): approximately ten times as potent | Plasma GH Levels (dose of peptide 0.1 μg/kg subcutaneous): 175 ± 20 ng/mL | Plasma GH Levels (dose of peptide 1.0 μg/kg subcutaneous): 113 ± 9 ng/mL | Plasma GH Levels (dose of peptide 10.0 μg/kg subcutaneous): 95 ± 5 ng/mL
